Laboratory results from the supplement of paper PMC10849652.
The list shows a part of the results.

Amino acid sequences for entries named in this document (tags omitted). A change or cut given only in a name is not applied to a line headed by its entry.
UniProt Q92620: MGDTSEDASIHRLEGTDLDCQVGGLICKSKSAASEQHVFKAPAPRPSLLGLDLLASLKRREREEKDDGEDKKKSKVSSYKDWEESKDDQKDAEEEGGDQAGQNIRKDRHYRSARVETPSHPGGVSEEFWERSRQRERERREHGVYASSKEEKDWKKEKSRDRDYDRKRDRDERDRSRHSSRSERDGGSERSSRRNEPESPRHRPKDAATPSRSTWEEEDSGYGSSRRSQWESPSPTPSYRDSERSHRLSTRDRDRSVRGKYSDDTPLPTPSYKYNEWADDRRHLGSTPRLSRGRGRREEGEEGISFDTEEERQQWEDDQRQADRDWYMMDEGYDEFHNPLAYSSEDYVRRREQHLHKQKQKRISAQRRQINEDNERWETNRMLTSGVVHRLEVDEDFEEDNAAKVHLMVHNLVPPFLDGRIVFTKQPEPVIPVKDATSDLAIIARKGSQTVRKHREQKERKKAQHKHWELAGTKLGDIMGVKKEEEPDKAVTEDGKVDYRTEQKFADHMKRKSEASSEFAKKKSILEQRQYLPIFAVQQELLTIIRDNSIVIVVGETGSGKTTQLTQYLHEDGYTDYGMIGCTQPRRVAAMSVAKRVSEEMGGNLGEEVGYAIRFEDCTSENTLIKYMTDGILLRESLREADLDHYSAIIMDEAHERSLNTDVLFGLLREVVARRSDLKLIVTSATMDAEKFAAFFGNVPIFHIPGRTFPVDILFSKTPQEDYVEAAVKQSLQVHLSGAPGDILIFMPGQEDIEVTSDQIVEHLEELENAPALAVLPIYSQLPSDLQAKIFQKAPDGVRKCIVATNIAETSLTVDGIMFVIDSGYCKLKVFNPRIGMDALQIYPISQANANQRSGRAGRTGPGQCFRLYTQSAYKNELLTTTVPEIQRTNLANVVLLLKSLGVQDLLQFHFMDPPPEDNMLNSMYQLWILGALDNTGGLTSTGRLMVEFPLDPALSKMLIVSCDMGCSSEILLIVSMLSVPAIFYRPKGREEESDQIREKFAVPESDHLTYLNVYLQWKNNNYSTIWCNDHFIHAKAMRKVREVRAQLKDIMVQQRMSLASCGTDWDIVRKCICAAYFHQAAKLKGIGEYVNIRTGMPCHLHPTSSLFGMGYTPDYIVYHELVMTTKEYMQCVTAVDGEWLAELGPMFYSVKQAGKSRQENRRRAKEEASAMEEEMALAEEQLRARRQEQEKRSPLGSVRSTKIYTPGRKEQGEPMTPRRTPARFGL
UniProt Q96JB1: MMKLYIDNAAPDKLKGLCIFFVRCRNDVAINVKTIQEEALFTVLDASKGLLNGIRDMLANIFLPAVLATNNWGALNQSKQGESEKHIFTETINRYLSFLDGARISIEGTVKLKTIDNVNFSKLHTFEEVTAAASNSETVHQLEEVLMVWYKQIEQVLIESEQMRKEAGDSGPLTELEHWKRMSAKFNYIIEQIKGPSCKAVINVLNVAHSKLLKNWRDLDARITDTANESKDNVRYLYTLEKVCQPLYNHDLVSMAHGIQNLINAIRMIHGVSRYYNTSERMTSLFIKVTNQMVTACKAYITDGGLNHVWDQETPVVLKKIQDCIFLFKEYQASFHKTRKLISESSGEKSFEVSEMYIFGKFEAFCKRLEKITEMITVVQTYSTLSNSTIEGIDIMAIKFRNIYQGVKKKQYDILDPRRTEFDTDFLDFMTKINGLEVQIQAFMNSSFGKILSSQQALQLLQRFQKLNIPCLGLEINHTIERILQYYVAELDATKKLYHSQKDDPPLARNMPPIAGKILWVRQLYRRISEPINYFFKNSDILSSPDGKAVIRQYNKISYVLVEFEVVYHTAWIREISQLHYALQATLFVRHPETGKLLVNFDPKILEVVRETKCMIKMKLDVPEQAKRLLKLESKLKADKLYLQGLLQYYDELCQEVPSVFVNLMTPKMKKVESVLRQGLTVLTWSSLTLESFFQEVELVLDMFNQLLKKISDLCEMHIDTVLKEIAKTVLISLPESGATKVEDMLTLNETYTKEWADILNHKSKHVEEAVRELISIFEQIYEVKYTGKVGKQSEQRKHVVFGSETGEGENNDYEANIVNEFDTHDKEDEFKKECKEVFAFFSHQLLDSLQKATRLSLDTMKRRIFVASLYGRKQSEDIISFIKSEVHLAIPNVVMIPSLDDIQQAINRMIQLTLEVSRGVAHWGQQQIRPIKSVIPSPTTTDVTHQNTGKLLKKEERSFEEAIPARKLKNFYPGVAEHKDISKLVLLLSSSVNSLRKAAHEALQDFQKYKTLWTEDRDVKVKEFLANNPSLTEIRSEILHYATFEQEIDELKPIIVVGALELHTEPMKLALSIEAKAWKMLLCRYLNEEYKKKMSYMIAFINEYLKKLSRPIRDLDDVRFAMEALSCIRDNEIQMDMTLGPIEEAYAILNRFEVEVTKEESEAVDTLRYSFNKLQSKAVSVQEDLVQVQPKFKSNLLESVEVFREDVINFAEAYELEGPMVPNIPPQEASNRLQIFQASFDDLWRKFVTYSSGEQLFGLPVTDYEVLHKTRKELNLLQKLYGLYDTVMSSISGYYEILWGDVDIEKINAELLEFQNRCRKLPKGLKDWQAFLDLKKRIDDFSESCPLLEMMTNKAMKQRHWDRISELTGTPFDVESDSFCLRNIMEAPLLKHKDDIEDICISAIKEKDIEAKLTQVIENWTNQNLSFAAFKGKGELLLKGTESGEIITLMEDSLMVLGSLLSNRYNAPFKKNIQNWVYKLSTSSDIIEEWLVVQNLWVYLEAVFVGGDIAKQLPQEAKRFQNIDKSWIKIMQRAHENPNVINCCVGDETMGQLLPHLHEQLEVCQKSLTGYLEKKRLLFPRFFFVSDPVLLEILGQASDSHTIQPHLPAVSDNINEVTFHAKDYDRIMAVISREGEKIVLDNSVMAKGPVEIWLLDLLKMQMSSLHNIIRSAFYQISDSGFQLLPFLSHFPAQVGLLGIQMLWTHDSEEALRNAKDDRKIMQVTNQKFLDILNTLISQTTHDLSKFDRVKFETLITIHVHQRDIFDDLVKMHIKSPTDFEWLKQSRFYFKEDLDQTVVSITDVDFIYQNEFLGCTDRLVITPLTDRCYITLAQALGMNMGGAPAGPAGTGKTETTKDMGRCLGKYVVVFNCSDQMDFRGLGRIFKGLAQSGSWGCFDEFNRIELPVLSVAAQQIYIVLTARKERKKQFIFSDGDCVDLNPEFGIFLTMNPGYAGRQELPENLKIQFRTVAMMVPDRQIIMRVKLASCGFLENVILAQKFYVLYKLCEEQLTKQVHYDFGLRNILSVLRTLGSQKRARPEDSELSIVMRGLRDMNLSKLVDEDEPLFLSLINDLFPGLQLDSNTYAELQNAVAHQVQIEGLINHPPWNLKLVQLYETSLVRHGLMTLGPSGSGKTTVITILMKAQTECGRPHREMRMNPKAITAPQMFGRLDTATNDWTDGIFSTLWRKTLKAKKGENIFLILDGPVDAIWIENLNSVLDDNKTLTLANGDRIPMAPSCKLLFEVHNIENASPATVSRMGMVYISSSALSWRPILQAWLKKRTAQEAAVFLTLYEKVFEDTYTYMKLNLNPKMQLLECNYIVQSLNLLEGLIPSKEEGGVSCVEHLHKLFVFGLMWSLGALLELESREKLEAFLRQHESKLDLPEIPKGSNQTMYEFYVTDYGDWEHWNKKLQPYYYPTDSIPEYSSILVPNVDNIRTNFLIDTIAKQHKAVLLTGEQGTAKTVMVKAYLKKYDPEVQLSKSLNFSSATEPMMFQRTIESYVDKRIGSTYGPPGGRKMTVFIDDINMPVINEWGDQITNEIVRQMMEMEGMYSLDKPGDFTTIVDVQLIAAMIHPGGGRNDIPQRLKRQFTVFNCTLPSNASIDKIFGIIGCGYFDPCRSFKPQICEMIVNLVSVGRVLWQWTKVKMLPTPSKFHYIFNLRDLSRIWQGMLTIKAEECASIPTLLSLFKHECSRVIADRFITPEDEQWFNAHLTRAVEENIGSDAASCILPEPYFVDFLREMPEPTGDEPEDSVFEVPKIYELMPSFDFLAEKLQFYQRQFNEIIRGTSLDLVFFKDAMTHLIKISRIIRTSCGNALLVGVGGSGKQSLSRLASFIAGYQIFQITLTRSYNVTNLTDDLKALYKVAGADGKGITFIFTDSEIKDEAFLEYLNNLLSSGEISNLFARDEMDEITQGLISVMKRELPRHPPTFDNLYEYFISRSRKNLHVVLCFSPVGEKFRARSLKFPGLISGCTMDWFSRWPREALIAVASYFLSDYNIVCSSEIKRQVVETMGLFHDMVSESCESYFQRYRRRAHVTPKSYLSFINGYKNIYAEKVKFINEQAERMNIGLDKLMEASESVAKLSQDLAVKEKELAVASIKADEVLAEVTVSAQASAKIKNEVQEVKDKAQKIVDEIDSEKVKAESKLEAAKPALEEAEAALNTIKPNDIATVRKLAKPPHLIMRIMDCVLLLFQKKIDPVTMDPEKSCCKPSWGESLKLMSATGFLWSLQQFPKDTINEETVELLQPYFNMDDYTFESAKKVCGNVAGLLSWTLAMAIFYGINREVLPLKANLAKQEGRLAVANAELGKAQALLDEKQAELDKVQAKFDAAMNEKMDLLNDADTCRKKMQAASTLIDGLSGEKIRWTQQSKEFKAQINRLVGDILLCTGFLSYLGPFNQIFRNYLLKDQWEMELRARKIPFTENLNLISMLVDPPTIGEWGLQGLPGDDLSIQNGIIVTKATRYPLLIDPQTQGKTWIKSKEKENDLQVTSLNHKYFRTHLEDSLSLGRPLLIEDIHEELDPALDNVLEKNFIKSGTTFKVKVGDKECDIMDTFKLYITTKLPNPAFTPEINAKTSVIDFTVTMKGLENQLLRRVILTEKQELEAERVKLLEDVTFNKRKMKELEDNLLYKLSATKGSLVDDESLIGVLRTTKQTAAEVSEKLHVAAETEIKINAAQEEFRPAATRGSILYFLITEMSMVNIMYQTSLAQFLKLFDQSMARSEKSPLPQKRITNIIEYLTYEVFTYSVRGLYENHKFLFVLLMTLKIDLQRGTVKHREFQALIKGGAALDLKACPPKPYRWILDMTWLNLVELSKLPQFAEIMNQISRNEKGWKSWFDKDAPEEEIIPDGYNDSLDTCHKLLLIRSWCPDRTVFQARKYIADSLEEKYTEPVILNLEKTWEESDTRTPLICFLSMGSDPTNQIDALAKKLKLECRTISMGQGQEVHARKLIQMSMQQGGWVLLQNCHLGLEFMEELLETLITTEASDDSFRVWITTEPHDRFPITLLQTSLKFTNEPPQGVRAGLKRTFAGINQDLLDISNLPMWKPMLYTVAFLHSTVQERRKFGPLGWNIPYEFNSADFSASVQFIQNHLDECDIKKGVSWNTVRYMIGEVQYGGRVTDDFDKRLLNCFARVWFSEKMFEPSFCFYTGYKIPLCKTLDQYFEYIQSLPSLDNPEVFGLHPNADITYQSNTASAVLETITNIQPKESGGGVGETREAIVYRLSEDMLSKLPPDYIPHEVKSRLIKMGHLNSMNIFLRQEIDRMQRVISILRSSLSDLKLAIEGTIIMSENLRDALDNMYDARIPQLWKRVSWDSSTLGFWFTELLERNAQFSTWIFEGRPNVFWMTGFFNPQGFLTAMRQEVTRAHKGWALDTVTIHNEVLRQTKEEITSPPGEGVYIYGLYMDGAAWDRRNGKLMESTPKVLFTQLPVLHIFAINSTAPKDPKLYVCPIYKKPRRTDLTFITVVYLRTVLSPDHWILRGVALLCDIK
UniProt P0CG22: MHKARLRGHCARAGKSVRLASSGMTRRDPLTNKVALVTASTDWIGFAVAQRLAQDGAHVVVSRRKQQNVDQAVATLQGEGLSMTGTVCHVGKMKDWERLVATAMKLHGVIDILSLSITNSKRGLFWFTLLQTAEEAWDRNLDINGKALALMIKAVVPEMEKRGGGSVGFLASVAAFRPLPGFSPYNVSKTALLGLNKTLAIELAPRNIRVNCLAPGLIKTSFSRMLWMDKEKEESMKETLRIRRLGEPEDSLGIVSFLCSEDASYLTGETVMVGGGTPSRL
UniProt Q9NW81: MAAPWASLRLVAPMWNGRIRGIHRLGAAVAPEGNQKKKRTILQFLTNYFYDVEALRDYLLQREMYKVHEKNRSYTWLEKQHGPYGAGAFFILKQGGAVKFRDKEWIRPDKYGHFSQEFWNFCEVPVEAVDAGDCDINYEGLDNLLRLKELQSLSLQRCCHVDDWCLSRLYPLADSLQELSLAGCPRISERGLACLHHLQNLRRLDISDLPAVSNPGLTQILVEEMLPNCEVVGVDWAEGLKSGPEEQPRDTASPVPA
UniProt Q96HY6: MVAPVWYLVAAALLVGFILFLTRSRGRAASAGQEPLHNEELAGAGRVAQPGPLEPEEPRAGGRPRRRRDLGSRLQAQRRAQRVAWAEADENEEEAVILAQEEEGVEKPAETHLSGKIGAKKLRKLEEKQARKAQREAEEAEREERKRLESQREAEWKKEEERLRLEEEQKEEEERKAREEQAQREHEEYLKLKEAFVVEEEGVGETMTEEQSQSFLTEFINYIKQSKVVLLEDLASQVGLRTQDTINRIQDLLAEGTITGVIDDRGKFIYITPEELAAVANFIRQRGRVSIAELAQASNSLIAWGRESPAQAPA

Columns and labels:
Assay in all cases: log2 fold change, soluble protein after heating vs DMSO (PISA); higher = thermal stabilisation; K562 cells, 10 uM, 30 min; active = over 0.2 and 3.5 SD of the protein, either way, in both replicates (recomputed)
saracatinib = compound: CN1CCN(CCOc2cc(OC3CCOCC3)c3c(Nc4c(Cl)ccc5c4OCO5)ncnc3c2)CC1 [saracatinib]
Summary of the method: (§1)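 Quantification of soluble protein used TMTpro 16plex LC-MS/MS, with channel sums equalised. Samples were the supernatant after 21,000xg for 90 min of pooled aliquots from K562 cells (2×10^6 cells/mL) treated with 10 μM compound for 30 min, heated for 3 min over 48°C-58°C, and extracted in PBS with 0.5% NP-40 at 4°C. Values, from duplicates, describe thermal stability against control samples on a log2 fold-change scale.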

sotrastaurin = compound: CN1CCN(c2nc(C3=C(c4c[nH]c5ccccc45)C(=O)NC3=O)c3ccccc3n2)CC1 [sotrastaurin]
Summary of the method: as §1

alvocidib = compound: CN1CC[C@H](c2c(O)cc(O)c3c(=O)cc(-c4ccccc4Cl)oc23)[C@H](O)C1 [alvocidib]
Summary of the method: as §1

Tubastatin A = compound: CN1CCc2c(c3ccccc3n2Cc2ccc(C(=O)NO)cc2)C1 [Tubastatin A]
Summary of the method: as §1

[1] = compound: CNC(=O)C1=CC=CC=C1NC2=NC(=NC=C2Cl)NC3=C(C=C(C=C3)N4CCOCC4)OC
Summary of the method: as §1

defactinib = compound: CNC(=O)c1ccc(Nc2ncc(C(F)(F)F)c(NCc3nccnc3N(C)S(C)(=O)=O)n2)cc1 [defactinib]
Summary of the method: as §1

rucaparib = compound: CNCc1ccc(-c2[nH]c3cc(F)cc4c3c2CCNC4=O)cc1 [rucaparib]
Summary of the method: as §1

[2] = compound: CNc1nc(-c2ccc3c(N)n[nH]c3c2)cc(N2C[C@@H](C(=O)NC3CCCCC3)CC[C@H]2C)n1
Summary of the method: as §1

encorafenib = compound: COC(=O)N[C@@H](C)CNc1nccc(-c2cn(C(C)C)nc2-c2cc(Cl)cc(NS(C)(=O)=O)c2F)n1 [encorafenib]
Summary of the method: as §1

[3] = compound: COC(=O)[C@H](CCSC)NC(=O)C1=C(C=C(C=C1)NC[C@H](CS)N)C2=CC=CC=C2
Summary of the method: as §1

Measured: log2 fold change

DERA (UniProt Q9Y315)
inactive: saracatinib 0.014 | sotrastaurin 0.041 | alvocidib 0 | Tubastatin A -0.007 | [1] -0.027 | defactinib -0.023 | rucaparib -0.002 | [2] -0.064 | encorafenib -0.037 | [3] 0.013

DDX3X (UniProt O00571)
inactive: saracatinib -0.256 | sotrastaurin -0.126 | alvocidib 0.244 | Tubastatin A 0.081 | [1] -0.003 | defactinib 0.415 | rucaparib 0.678 | [2] 0.114 | encorafenib 0.18 | [3] -0.083

DDX59 (UniProt Q5T1V6)
inactive: saracatinib 0.001 | sotrastaurin -0.002 | alvocidib -0.063 | Tubastatin A 0.014 | [1] 0.033 | defactinib -0.054 | rucaparib -0.065 | [2] -0.003 | encorafenib 0.118 | [3] -0.009

DLG1 isoform 2 (UniProt Q12959)
inactive: saracatinib 0.039 | sotrastaurin -0.019 | alvocidib -0.06 | Tubastatin A 0.039 | [1] 0.051 | defactinib -0.085 | rucaparib 0.058 | [2] 0.018 | encorafenib -0.092 | [3] 0.12

Reprinted at random: 2 records from the list, in no set order.
DERA (UniProt Q9Y315)
inactive: saracatinib 0.014 | sotrastaurin 0.041 | alvocidib 0 | Tubastatin A -0.007 | [1] -0.027 | defactinib -0.023 | rucaparib -0.002 | [2] -0.064 | encorafenib -0.037 | [3] 0.013

DDX59 (UniProt Q5T1V6)
inactive: saracatinib 0.001 | sotrastaurin -0.002 | alvocidib -0.063 | Tubastatin A 0.014 | [1] 0.033 | defactinib -0.054 | rucaparib -0.065 | [2] -0.003 | encorafenib 0.118 | [3] -0.009

Later entries.

DHX9 (UniProt Q08211)
inactive: saracatinib -0.016 | sotrastaurin -0.006 | alvocidib 0.248 | Tubastatin A 0.029 | [1] 0.028 | defactinib 0.401 | rucaparib 0.19 | [2] -0.03 | encorafenib 0.035 | [3] -0.048

DHRS2 (UniProt Q13268)
inactive: saracatinib 0.021 | sotrastaurin 0.02 | alvocidib -0.028 | Tubastatin A -0.012 | [1] 0.075 | defactinib -0.046 | rucaparib -0.012 | [2] 0.017 | encorafenib 0.027 | [3] 0.027

DGCR2 (UniProt P98153)
inactive: saracatinib 0.01 | sotrastaurin 0.034 | alvocidib -0.002 | Tubastatin A -0.023 | [1] -0.011 | defactinib 0.03 | rucaparib -0.035 | [2] -0.086 | encorafenib 0.033 | [3] -0.044

DHX38 (UniProt Q92620)
inactive: saracatinib 0.008 | sotrastaurin 0.023 | alvocidib -0.004 | Tubastatin A -0.031 | [1] 0.004 | defactinib -0.041 | rucaparib -0.059 | [2] -0.021 | encorafenib -0.002 | [3] -0.013

DMAC2L (UniProt Q99766)
inactive: saracatinib -0.046 | sotrastaurin 0.097 | alvocidib -0.072 | Tubastatin A 0 | [1] -0.025 | defactinib 0.037 | rucaparib -0.036 | [2] -0.041 | encorafenib -0.035 | [3] 0.039

DHRS7 (UniProt Q9Y394)
inactive: saracatinib 0.055 | sotrastaurin -0.035 | alvocidib 0.015 | Tubastatin A -0.035 | [1] -0.025 | defactinib -0.06 | rucaparib 0.003 | [2] -0.074 | encorafenib -0.008 | [3] -0.028

DLST (UniProt P36957)
inactive: saracatinib 0.023 | sotrastaurin -0.006 | alvocidib 0.078 | Tubastatin A -0.005 | [1] -0.057 | defactinib 0.074 | rucaparib 0.061 | [2] 0.005 | encorafenib 0 | [3] 0.041

DDA1 (UniProt Q9BW61)
inactive: saracatinib -0.052 | sotrastaurin 0.021 | alvocidib -0.012 | Tubastatin A -0.008 | [1] -0.009 | defactinib -0.138 | rucaparib -0.055 | [2] 0 | encorafenib -0.045 | [3] -0.027

DLGAP5 (UniProt Q15398)
inactive: saracatinib -0.047 | sotrastaurin -0.142 | alvocidib 0 | Tubastatin A -0.019 | [1] 0.038 | defactinib -0.086 | rucaparib -0.007 | [2] 0.167 | encorafenib 0.027 | [3] 0.021

DDX19A (UniProt Q9NUU7)
inactive: saracatinib 0.019 | sotrastaurin 0.005 | alvocidib -0.106 | Tubastatin A -0.044 | [1] -0.033 | defactinib -0.089 | rucaparib -0.008 | [2] 0.015 | encorafenib 0.04 | [3] -0.037

DCXR (UniProt Q7Z4W1)
inactive: saracatinib 0.028 | sotrastaurin 0.049 | alvocidib -0.005 | Tubastatin A -0.015 | [1] -0.005 | defactinib -0.032 | rucaparib -0.037 | [2] -0.052 | encorafenib -0.032 | [3] 0.015

DHX30 isoform 2 (UniProt Q7L2E3)
inactive: saracatinib -0.091 | sotrastaurin -0.068 | alvocidib 0.091 | Tubastatin A 0.058 | [1] -0.048 | defactinib 0.123 | rucaparib 0.344 | [2] 0.052 | encorafenib 0.008 | [3] -0.034

DECR1 (UniProt Q16698)
inactive: saracatinib 0.031 | sotrastaurin 0.016 | alvocidib -0.037 | Tubastatin A -0.034 | [1] 0.001 | defactinib -0.006 | rucaparib -0.02 | [2] 0.02 | encorafenib 0 | [3] -0.018

DDX39B isoform 2 (UniProt Q13838)
inactive: saracatinib 0.004 | sotrastaurin -0.011 | alvocidib 0.042 | Tubastatin A -0.013 | [1] -0.061 | defactinib 0.063 | rucaparib 0.046 | [2] -0.03 | encorafenib -0.005 | [3] -0.014

DNAH8 (UniProt Q96JB1)
inactive: saracatinib -0.123 | sotrastaurin -0.024 | alvocidib 0.062 | Tubastatin A -0.022 | [1] -0.125 | defactinib -0.033 | rucaparib -0.327 | [2] -0.132 | encorafenib -0.045 | [3] -0.035

DNAJA1 (UniProt P31689)
inactive: saracatinib -0.022 | sotrastaurin 0.012 | alvocidib -0.009 | Tubastatin A 0 | [1] -0.02 | defactinib -0.031 | rucaparib -0.015 | [2] -0.037 | encorafenib 0.003 | [3] 0.008

DES (UniProt P17661)
inactive: saracatinib -0.026 | sotrastaurin -0.21 | alvocidib 0.19 | Tubastatin A 0.133 | [1] -0.141 | defactinib 0 | rucaparib -0.078 | [2] 0.011 | encorafenib -0.009 | [3] -0.008

DDX56 (UniProt Q9NY93)
inactive: saracatinib -0.063 | sotrastaurin -0.065 | alvocidib 0.166 | Tubastatin A 0.24 | [1] 0.081 | defactinib 0.088 | rucaparib 0.046 | [2] 0.101 | encorafenib 0.084 | [3] -0.026

DGAT1 (UniProt O75907)
inactive: saracatinib 0.098 | sotrastaurin -0.016 | alvocidib 0.024 | Tubastatin A -0.004 | [1] -0.09 | defactinib -0.039 | rucaparib -0.223 | [2] 0.017 | encorafenib 0.116 | [3] -0.064

DLGAP4 (UniProt Q9Y2H0)
inactive: saracatinib 0.036 | sotrastaurin 0.032 | alvocidib 0.046 | Tubastatin A -0.008 | [1] -0.025 | defactinib -0.032 | rucaparib -0.042 | [2] 0.016 | encorafenib 0.006 | [3] 0.006

DKC1 (UniProt O60832)
inactive: saracatinib 0.026 | sotrastaurin 0.022 | alvocidib 0.121 | Tubastatin A -0.007 | [1] -0.013 | defactinib 0.149 | rucaparib 0.228 | [2] -0.004 | encorafenib -0.009 | [3] 0.047

DHRS4L1 (UniProt P0CG22)
inactive: saracatinib 0.016 | sotrastaurin 0.006 | alvocidib 0.002 | Tubastatin A -0.051 | [1] 0.03 | defactinib 0.013 | rucaparib 0.007 | [2] -0.029 | encorafenib -0.01 | [3] 0.006

DLAT (UniProt P10515)
inactive: saracatinib -0.214 | sotrastaurin -0.161 | alvocidib 0.154 | Tubastatin A 0.177 | [1] 0.013 | defactinib 0.244 | rucaparib 0.107 | [2] 0.038 | encorafenib 0.162 | [3] 0.024

DIS3L2 (UniProt Q8IYB7)
inactive: saracatinib 0.07 | sotrastaurin 0.097 | alvocidib -0.011 | Tubastatin A 0.109 | [1] 0.079 | defactinib -0.057 | rucaparib 0.009 | [2] -0.015 | encorafenib -0.013 | [3] -0.052

DMAC2 isoform 4 (UniProt Q9NW81)
inactive: saracatinib 0.075 | sotrastaurin 0 | alvocidib 0.03 | Tubastatin A 0.065 | [1] 0.037 | defactinib 0.059 | rucaparib -0.034 | [2] -0.091 | encorafenib -0.074 | [3] -0.056

DDRGK1 (UniProt Q96HY6)
inactive: saracatinib 0.092 | sotrastaurin -0.016 | alvocidib -0.013 | Tubastatin A -0.063 | [1] -0.035 | defactinib -0.029 | rucaparib 0.091 | [2] -0.032 | encorafenib -0.002 | [3] 0.08
